Results as given in patent US20250001009A1, “THERAPY FOR PROGRAMMED CELL DEATH IN A SUBJECT TRANSPLANTED WITH A DONOR LIVER CARRYING THE PNPLA3 RS738409:G VARIANT” (priority 2021, published 2025).
At least one compound was matched to its structure with a doubt left.

Columns and labels:
[1] = system: donor hepatocytes positive for the PNPLA3 rs738409:G variant; experiment: Lipid peroxidation (C11-BODIPY / MDA) in primary human hepatocytes; type: cell-based; settings: 100 μM deferoxamine, 24 hours in suspension, environment of ferroptosis (50 μM FINO2)
Experimental: To evaluate the protective effects of deferoxamine, primary human hepatocytes were treated with 100 μM deferoxamine (DFO, Sigma-Aldrich, Saint-Louis, MO) for 24 hours in suspension. To evaluate the protective effects of GSH, primary human hepatocytes on collagen-coated plates were treated with 10 μM reduced L-glutathione (GSH, G4251, Sigma-Aldrich, Saint-Louis, MO) for 48 hours. Analysis of Lipid Peroxidation: A oxidation-sensitive probe C11-BODIPY (581/591) (Invitrogen, Carlsbad, CA) was used to evaluate lipid peroxidation under a fluorescence microscope. Untreated hepatocytes were prepared using a cytocentrifuge, incubated for 30 min with 10 μM C11-BODIPY, and washed with PBS. Cultured cells were incubated with 10 μM C11-BODIPY dissolved in culture media for 30 min at 37° C. and washed with PBS. The fluorescent signal was evaluated 3 hours after induction of ferroptosis. Malondialdehyde (MDA) is a natural biproduct of lipid peroxidation and MDA quantification is used as marker for lipid peroxidation. The MDA content in primary human hepatocytes was quantified using a commercially available kit from Sigma-Aldrich (Sigma-Aldrich, Saint-Louis, MO). Cryopreserved primary human hepatocytes were pelleted and analyzed directly or were cultured for 3 hours in suspension before the analysis. […] The MDA-TBA adduct was quantified using fluorometric detection (ex/em=430 nm/590 nm).

[2] = system: donor hepatocytes positive for the PNPLA3 rs738409:G variant; experiment: Cell viability / survival (Alamar Blue) of primary human hepatocytes; type: cell-based; settings: 100 μM deferoxamine, 24 hours in suspension, environment of ferroptosis (50 μM FINO2)
Experimental: To evaluate the protective effects of deferoxamine, primary human hepatocytes were treated with 100 μM deferoxamine (DFO, Sigma-Aldrich, Saint-Louis, MO) for 24 hours in suspension. To evaluate the protective effects of GSH, primary human hepatocytes on collagen-coated plates were treated with 10 μM reduced L-glutathione (GSH, G4251, Sigma-Aldrich, Saint-Louis, MO) for 48 hours. Cell Viability Measurements: Cell viability was assessed in 96-well format using Alamar Blue (Invitrogen, Carlsbad, CA) absorbance (570 nm/600 nm) measured on a synergy HTX microplate reader (Biotek, Winooski, VT) 24 hours after ferroptosis induction. Post thaw viability of primary human hepatocytes was evaluated by Trypan blue dye exclusion counting using a Countess 3 automated cell counter (Invitrogen, Carlsbad, CA).

[3] = system: donor hepatocytes positive for the PNPLA3 rs738409:G variant; experiment: Mitochondrial shape by transmission electron microscopy; type: cell-based, human; settings: 100 μM deferoxamine, 24 hours in suspension, environment of ferroptosis, p=0.02
Experimental: To evaluate the protective effects of deferoxamine, primary human hepatocytes were treated with 100 μM deferoxamine (DFO, Sigma-Aldrich, Saint-Louis, MO) for 24 hours in suspension. To evaluate the protective effects of GSH, primary human hepatocytes on collagen-coated plates were treated with 10 μM reduced L-glutathione (GSH, G4251, Sigma-Aldrich, Saint-Louis, MO) for 48 hours. Transmission electron microscopy: Human hepatocytes in suspension were briefly centrifugated and washed with PBS solution. Samples were then fixed with 2.5% glutaraldehyde over night at 4° C. Fixed samples were processed by the Center for Biologic Imaging at the University of Pittsburgh, and treated with 1% osmium tetroxide and 1% potassium ferricyanide for 1 hour at room temperature. Samples were washed with PBS and dehydrated in a graded series of ethanol solution (30%, 50%, 70%, and 90% ethanol; 10 minutes each) and three 15-minute incubations in fresh 100% ethanol. Infiltration/embedding was done with three 1-hour incubations of epon. The last change of epon was removed and beam capsules filled with resin were inverted over relevant areas of the monolayers. […] Mitochondrial shape was evaluated as published previously using ImageJ (Merrill et al. in Techniques to Investigate Mitochondrial Function in Neurons, 123:31-48. Neuromethods. Springer New York, 2017).

With `CC(=O)N(O)CCCCCNC(=O)CCC(=O)N(O)CCCCCNC(=O)CCC(=O)N(O)CCCCCN` [DFO, deferoxamine] the lipid peroxidation [1] was “reduced lipid peroxidation”, the lipid peroxidation ([1]; listed as deferoxamine) was “reduces lipid peroxidation” and the survival [2] was “increased survival”. For the same molecule, the survival ([2]; listed as deferoxamine) was “increases cell survival”, the mitochondrial shape [3] was “improved mitochondrial shape” and the mitochondrial shape ([3]; listed as deferoxamine) was “improves mitochondrial shape”.
